Assay results: paper PMC9676401

How the values were obtained:
Assay in all cases: co-IP; COS-7 cells cotransfected for 48 h in 10% FBS DMEM with FLAG-MKP7 (WT or mutants) and p38α MAPK-HA, JNK1β-GFP or ERK2-HA; Pierce IP lysis buffer; immunoprecipitation with anti-FLAG M2 overnight and protein-G beads; immunoblot with anti-HA or anti-GFP; quantitation as MAPK/FLAG-MKP7
[1] = target: T1, Full-length FLAG-tagged MKP7 Y271S (human) (UniProt Q9BY84)
T1 sequence: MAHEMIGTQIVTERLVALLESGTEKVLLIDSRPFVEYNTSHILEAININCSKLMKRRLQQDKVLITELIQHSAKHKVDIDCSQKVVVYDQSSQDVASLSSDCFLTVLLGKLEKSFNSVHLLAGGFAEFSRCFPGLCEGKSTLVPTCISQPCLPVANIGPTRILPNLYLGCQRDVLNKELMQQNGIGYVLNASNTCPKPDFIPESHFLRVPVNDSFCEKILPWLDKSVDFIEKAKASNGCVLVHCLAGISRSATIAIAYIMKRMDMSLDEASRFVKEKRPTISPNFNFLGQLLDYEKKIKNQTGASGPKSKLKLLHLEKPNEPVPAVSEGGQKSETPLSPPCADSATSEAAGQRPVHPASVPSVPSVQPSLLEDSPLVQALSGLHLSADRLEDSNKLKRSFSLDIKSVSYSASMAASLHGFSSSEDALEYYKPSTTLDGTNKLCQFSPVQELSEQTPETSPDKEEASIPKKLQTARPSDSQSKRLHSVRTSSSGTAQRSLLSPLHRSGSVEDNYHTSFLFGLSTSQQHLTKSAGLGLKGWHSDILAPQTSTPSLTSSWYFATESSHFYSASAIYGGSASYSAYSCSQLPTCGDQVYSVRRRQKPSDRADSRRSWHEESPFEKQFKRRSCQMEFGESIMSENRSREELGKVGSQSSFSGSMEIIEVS

[2] = target: T2, Full-length FLAG-tagged MKP7 Y271W (human) (UniProt Q9BY84)
T2 sequence: T1 sequence with S271W

[3] = target: T3, Full-length FLAG-tagged MKP7 double Y271S/C244S mutant (human) (UniProt Q9BY84)
T3 sequence: T1 sequence with C244S

[4] = target: T4, Full-length FLAG-tagged MKP7 WT (1-665 aa) (human) (UniProt Q9BY84)
T4 sequence: T1 sequence with S271Y

- binding [1]: no binding
- binding [2]: no binding
- binding [3]: no binding
- binding [4]: binds
Substance: GFP-tagged JNK1 (JNK1β) in pEGFP-C2 (enzyme)

Where a chain is given by its changes, count along the chain named. Results are given in words; binding and its absence hold for the method and conditions named. In cells and extracts the contact can be indirect. For some of these results: Binding calls can cover weak binding; strength is not graded here. Where a sequence is shown, tags or fusion partners need not be part of it.
